Results are given in words; binding and its absence hold for the method and conditions named. Some results given as binding are weak or reduced against the parent protein; the word gives no strength.
Biological target: T1, recombinant human cytokine TNFα (human, UniProt P01375 77-233)
T1 construct: Recombinant human TNFα used for immunisation, panning and ELISA; also called human TNFα; rhTNF-α
Test: phage display selection and ELISA on coated TNFα
Description: Phage selection rounds, amplification and recovery: There were performed 4 rounds of phage selection with TNFα 1 μg in PBS in an ELISA plate, sealed and incubating over night at 4° C., the cytokine is eliminated and blocking with 150 μl of PBS-BSA (3%), sealed and incubated 1 hr at 37° C.; discarding and adding 50 μl of phage-antibodies for each well, sealed and incubated with TBS-Tween 20 (0.05%) 150 for each well using the pipette to agitate. The solution is discarded and the phage-antibodies specific for TNFα are harvested after adding 50 μl per well of TBS-Trypsin [10 mg/ml]. The plate is sealed and incubated during 30 minutes, 37° C. The phage-antibodies are recovered and used to infect a culture of E. coli ER2537 (2 ml) electro-compentents (DO₆₀₀=1), during 15 minutes at room temperature. The selected phage-antibodies are amplified using serial dilutions incubating the transformants in SB media with carbencillin and helper phage VCSM13 with kanamycin. The phage-antibodies were recovered from the infected cultures of ER2537 cells by centrifugations using first PEG-8000 4% and NaCl 3, and PBS_BSA 1% (2 ml) filtering the supernatant with a 0.22 μm membrane, using 50 μl para to be selected according to the TNFα binding. […]

Protein sequences, listed by entry. Tags and fused reporters are not part of them. Residues count along the entry.
UniProt P01375, residues 77-233: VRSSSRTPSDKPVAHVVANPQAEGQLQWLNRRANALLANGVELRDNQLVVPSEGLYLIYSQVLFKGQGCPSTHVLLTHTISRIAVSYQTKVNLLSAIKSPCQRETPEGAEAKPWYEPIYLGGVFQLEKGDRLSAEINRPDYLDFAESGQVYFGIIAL

B1: vNAR clone 43 (anti-TNFα vNAR from Heterodontus francisci) (protein)
chain: ASLDQTLRTATRETGESLTVNCVLYDANYGLYSTSWYRNNPGSTDREHITIGGRYVESVNKGAKSFSLQIKDMTVEDSGTYYCKARATSGYTPHDGSGTVLTVN
  binding: binds

— patent US20110129473A1 (LABORATORIOS SILANES S A DE C V, published 2011)
